Reference: patent US6410328B1, “Sensitizing cells to compounds using lipid-mediated gene and compound delivery” (Protiva Biotherapeutics Inc., priority 1998, dated 2002)
Some of these results come from one statement about several compounds together.

Assay: Organ biodistribution of free and liposomal GCV in B16 tumored mice (Example 10)
Type: in vivo, mouse
Settings: over the entire time course
Protocol: Groups of four female C57BL/6 mice per time point were injected subcutaneously with 150,000 B16 tumor cells. The tumors were grown for 14 days at which time a single iv dose of free GCV or liposomal GCV was given via the lateral tail vein. This dose, given in a total of 200 μL, contained approximately 5.6 mg (10 μmoles) lipid and 0.5 mg (1.96 μmoles) GCV resulting in lipid and GCV doses of 300 mg/kg and 25 mg/kg, respectively. Circulating levels of lipid and GCV were determined at 15 min, 1, 8, 24 and 48 hrs for the liposomal GCV groups. Levels of GCV were determined at 15 min and 1 hr for the free GCV groups. At each time point, animals were anesthetized with ketamine/xylazine and blood was collected via cardiac puncture. Blood was put into EDTA coated microtainers and spun at 500 g for 10 min in order to pellet blood cells and obtain plasma. Lipid and GCV levels in the plasma were determined. Lipid and GCV were measured by counting ^14C-CHE and ^3H-GCV. One hundred or 200 μL aliquots of plasma were measured on a Beckman LS3801 scintillation counter.
Biodistribution data was collected from those mice that were in the pharmacokinetic studies. Following heart puncture, mice were terminated by cervical dislocation. Tissues were harvested from each animal and weighed. Saline was added to each organ prior to homogenization by either a Polytron homogenizer (livers) or a Fast Prep® machine. […]

For `Nc1nc(O)c2ncn(COC(CO)CO)c2n1` [free GCV, ganciclovir], the “GCV accumulation in the lung” value was “less than 0.35 % of the total injected dose”.
